For at least one compound, name, drawing or mass did not settle the structure.
Test: CNS oxygen toxicity, 6 ATA hyperbaric oxygen exposure
Assay type: in vivo, mice
Conditions: 400 mg/kg i.p.; 6 ATA oxygen
Description: Oxygen exposures: 7-8 week old mice were exposed to hyperbaric oxygen five at a time in a small-animal chamber (Bethlehem, Pa.). After flushing the chamber with pure oxygen, compression to 50 meters (6 ATA) was performed within 5 minutes. The oxygen concentration in the chamber was monitored continuously with a Servomex oxygen analyzer (model 572, Sybron, Norwood, Mass.) and maintained at ≳99%. The carbon dioxide concentration was analyzed from intermittent samples of chamber gas with an IR detector (IR Industries, Santa Barbara, Calif.) and was not allowed to rise above 0.1%. The chamber temperature was maintained at 25-26° C., but the compression of oxygen in the chamber raised the temperature to 30-32° C. transiently, but an environmental control system restored the normal chamber temperature within 3 minutes. […] The mice were observed continuously for signs of oxygen toxicity from the beginning of the exposure until 4 hours after removal from the chamber. The time to the first generalized convulsion (seizure latency) and the time to death were recorded. These exposure conditions are designed to cause CNS oxygen toxicity without appreciable evidence of pulmonary oxygen toxicity. […]

With CCN(CC)C(=S)S [diethyldithiocarbamate] the “delay of onset of seizures” value was “four-fold”.

— US6583132B1, “Oxidant scavengers” (Duke University, priority 1993, dated 2003)
